The source of these data is PubChem BioAssay AID493014 (National Center for Advancing Translational Sciences (NCATS), 2011).

The other results are listed elsewhere or left out. These are further read-outs of the screen, such as a control signal, another cell line or another target. No call is given for them. Compounds called inactive in the main read-out are mostly missing here. Words in brackets tell the shape of the fitted curve; partial curves, single points and poor fits give uncertain potencies.

This assay is described as follows: qHTS Assay to Find Inhibitors of Chronic Active B-Cell Receptor Signaling. As to conditions: ABC-DLBCL IkBa-CBG/CBR reporter, luminescence ratio (green luciferase fused to IkBa over red control in TMD8 lymphoma cells), 4 h. An outline of the steps:
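TMD8 human ABC-DLBCL cells with doxycycline-inducible IκBα–green luciferase fusion and unfused red luciferase, in 0.5% FBS medium; compounds up to 46 uM, 4 h at 37C. Green/red luminescence ratio, filter-overlap corrected, fitted to concentration-response curves.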
In general terms: In qHTS, concentration-response curves come from the screen itself.

Setting [1] is: measured here: CBR red luminescence, cell number.
The mark [2] stands for this setting: measured here: IkBa-CBG green luminescence.

For the compound `CC(=O)c1cccc(OCC(=O)N2CCN(CC(=O)Nc3cccc(F)c3)CC2)c1`, the AC50 under setting [1] is 0.0517 µM [rising, full curve, poor fit].

Turning to `CCn1c(O)c(/C=N/NC(=O)c2ccncc2)c(=O)[nH]c1=S`, the AC50 under setting [1] is 20.6 µM [falling, partial curve].

`CC[C@@]1(O)C(=O)OCc2c1cc1n(c2=O)Cc2cc3c(NC(=O)CN)cccc3nc2-1`: the AC50 by setting is: under setting [1], 35.5 µM [falling, single point]; under setting [2], 8.91 µM [rising, partial curve].

For `CC/C(=N\NC(=O)c1ccccc1)c1c(O)n(C2CCCCC2)c(=O)[nH]c1=O`, under setting [1], the AC50 was 2 µM [falling, full curve].

Regarding `Cc1c2ccncc2c(C)c2c1[nH]c1ccccc12`, the AC50 under setting [1] is 5.8 µM [falling, partial curve].

Turning to `COc1ccc(C(c2c(O)c3ccccc3oc2=O)c2c(C)n(C)n(-c3ccccc3)c2=O)cc1` (stereo not drawn), under setting [1], the AC50 was 1.84 µM [falling, partial curve].

With `CC(=O)c1cn(CC(=O)NCCc2c[nH]c3ccccc23)c2ccccc12`, under setting [1], the AC50 was 11.2 µM [falling, partial curve].

Take `O=C(N/N=C/c1c(O)n(C2CCCCC2)c(=S)[nH]c1=O)c1ccccc1O`: under setting [1], the AC50 is 7.08 µM [falling, partial curve].

In the case of `CC1(C)CC(CCNCc2ccc3c(c2)OCO3)(Cc2ccccc2)CCO1` (stereo not drawn), the AC50 reads like this: under setting [1], 11.2 µM [falling, partial curve]; under setting [2], 14.1 µM [rising, partial curve, poor fit].

`O=C(CN1CCN(c2ccccc2F)CC1)Nc1cccnc1Cl`: the AC50 under setting [2] was 11.2 µM [falling, partial curve, poor fit].

`CC(=O)Nc1ccc(C(=O)OCC(=O)Nc2ccc(Cl)cc2C(=O)c2ccccc2)cc1`: under setting [1], the AC50 is 6.51 µM [rising, single point].

Turning to `Cc1cc(C)c(N=Cc2c(O)[nH]c(=O)[nH]c2=O)c(C)c1`, the AC50 under setting [1] is 22.4 µM [rising, single point].

For `COC(=O)C(O)(c1ccc(NC(=S)NC(=O)c2ccccc2)cc1)C(F)(F)F` (stereo not drawn), under setting [1], the AC50 was 7.94 µM [falling, partial curve, poor fit].

As for `COc1ccc(-n2c(/C=C/c3ccc(O)c(OC)c3)nc3ccccc3c2=O)cc1`, the concentration at half-maximal activity (AC50) under setting [1] was 7.08 µM [falling, partial curve, poor fit].

Turning to `O=C(c1ccc(CNS(=O)(=O)c2ccccc2)cc1)N1CCC2(CC1)OCCO2`, the AC50 under setting [1] is 6.31 µM [rising, single point].

For `Cc1ccc(S(=O)(=O)Oc2ccc(/C=N/NC(=O)c3cccnc3)cc2)cc1`, the concentration at half-maximal activity (AC50) under setting [1] was 17.8 µM [falling, single point].

For orientation: AC50 means the concentration at which the activity in the assay is half-maximal.
